## Results from one PubChem assay

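Counterscreen z-score for each compound in a recombinant Hck-YEEI:Nef Z-Lyte FRET kinase setup using a p-Tyr peptide, with a 50 min kinase step and 60 min development. Compounds were tested at a single concentration of 10 µM. The number is a z-score for the p-Tyr peptide counterscreen; higher values mean a stronger counterscreen signal, and values above 3 mark a compound as likely interfering.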

Common to all entries: measured here: p-Tyr peptide counterscreen. This is a side read-out of the assay, for part of the compounds, not drawn at random.

compound	z-score
CCOC(=O)c1cc2c(=O)n3cccc(C)c3nc2n(CC2CCCO2)c1=NC(C)=O (centres undefined)	117.5
O=c1c2c(-c3ccc(Cl)cc3)csc2ncn1/N=C/c1cccc([N+](=O)[O-])c1O	-1.671
Cc1[nH]c2ccccc2c1/C=N/Nc1ccccn1	-0.664
Cc1ccc(Nc2nc(=O)c3cc([N+](=O)[O-])ccc3s2)cc1	-0.4716
O=C(CSc1ncnc2c1oc1ccccc12)Nc1nccs1	-1.934
O=C1NC(=O)N(CCc2ccc(F)cc2)C(=O)/C1=C/c1cccs1	-1.117
CCn1c2ccccc2c2c3ncc4cccn4c3ccc21	4.93
CCN1CCCc2cc(CN(CCN3CCOCC3)C(=S)Nc3ccccc3C)ccc21	-1.599
O=C(Nc1ccc(-n2nncc2-c2ccco2)cc1)c1cc2ccccc2oc1=O	1.696
Cc1cc2c(s1)c1cnn(CC(=O)NCCc3ccccc3)c(=O)c1n2C	-0.1336
CC(C)(C)n1nc(-c2ccc(F)cc2)c2c(N)ncnc21	1.219
COc1ccccc1C(=O)Oc1ccc2c(c1)O/C(=C\c1ccncc1)C2=O	0.4656
O=C1N=C(N2CCN(c3ccccc3)CC2)S/C1=C/c1ccco1	-1.057
O=C(NCCC1=CCCCC1)c1cc(-c2ccccn2)nc2ccccc12	-1.994
CC(=O)Nc1sc(N/N=C/c2ccc(O)cc2)nc1-c1ccc(C)cc1	-0.9705
CCN1CCN(Cc2ccc(NC(=O)c3ccc(C)c(NC(=O)c4ccc5n[nH]nc5c4)c3)cc2C(F)(F)F)CC1	0.812
COc1ccc(/C=N/NC(=O)c2cc(O)c(O)c(O)c2)cc1Cn1cc([N+](=O)[O-])cn1	-0.8131
COc1cc(/C=C2\SC(=N)N(c3ccc(F)cc3)C2=O)ccc1O	0.4545
N#Cc1ccc(CSc2nnc(NC(=O)c3ccc4ncsc4c3)s2)cc1	-1.891
COC(=O)c1c(NC(=O)COC(=O)c2ccc(NC(=O)CC#N)cc2)sc2c1CCCCC2	-1.176
COCc1[nH][nH]c(=O)c1C=Nc1ccc(Oc2ccccc2)cc1	-0.4905
N#CC1=C(N)Oc2cc(N)ccc2C1C1CCCCC1 (centres undefined)	3.801
COc1ccc(-c2cc3ccccc3oc2=O)cc1NC(=O)c1ccc(Br)o1	-0.2405
COc1cccc(/C=N/NC(=O)c2cnn(-c3ccccc3)c2N)c1	0.1903
COc1ccc(-c2cc(=O)c3c(O)c(OC)c(O)cc3o2)cc1	0.8193
COC(=O)c1c(-c2ccccc2Cl)noc1/C=C/N(C)C	-0.3731
Cc1ccc(/C=N/Nc2ncnc3nc[nH]c23)cc1	-1.513
C=CCNC(=S)/N=C/c1c(O)[nH]c(=O)[nH]c1=O	-1.641
Nc1[nH]nc2nc(N3CCOCC3)nc(-c3ccccc3)c12	1.487
COc1ccc(OC)c(-c2c3cc(O)c(=O)cc-3oc3cc(O)c(O)cc23)c1	-0.2593
CC(C)CCNC(=O)c1c(N)n(CC2CCCO2)c2nc3ccccc3nc12 (centres undefined)	36.06
Oc1cccc(Nc2nc(O)c(/C=C3\C=Nc4ccccc43)s2)c1	-0.4239
N#C/C(=C(/O)COC(=O)Cc1c[nH]c2ccccc12)c1nc2ccccc2[nH]1	1.867
O=c1[nH]c(=S)[nH]c(O)c1N=Nc1ccc(-c2ccccc2)cc1[N+](=O)[O-]	-1.46
CCOC(=O)c1c(NC(=O)c2cc(-c3ccc(Cl)s3)nc3ccccc23)sc(C(N)=O)c1C	2.173
CCOC(=O)c1nc(Nc2ccc(Nc3ccccc3)cc2)c2ccccc2n1	-1.541
N#CC(C#N)=NNc1ccc(S(N)(=O)=O)cc1	-2.368
O=C(Nc1cccc(S(=O)(=O)NC2=NCCC2)c1)c1cc(-c2ccco2)nc2ccccc12	-1.301
O=C(COc1ccc(/C=N/NC(=O)c2cc3ccccc3o2)cc1Br)Nc1ccccc1	0.1342
COc1ccc(/C=c2\s/c(=C\C(=O)C(C)(C)C)[nH]c2=O)cc1O	-1.38
CCC(c1nnnn1Cc1ccc(OC)cc1)N1CCN(c2ccc(OC)cc2)CC1 (centres undefined)	-1.424
O=C(NN1C(=O)/C(=C/C=C/c2ccco2)SC1=S)c1ccncc1	-0.4023
CCOC(=O)c1c(/N=C/N(C)C)sc(C=O)c1-c1ccccc1	23.41
COc1c(-c2ccc(O)cc2)oc2cc(O)cc(O)c2c1=O	-0.3782
CCOC(=O)c1ccc2ncc(C(=O)OCC)c(Nc3ccc(N4CCOCC4)cc3)c2c1	-1.163
CC1=NNC(=O)/C1=C\c1cn(-c2ccccc2)nc1-c1cccs1	-1.537
O=C(O)CCn1cc(C=C2C(=O)NC(=S)NC2=O)c(-c2ccccc2)n1	-0.3709
COC(=O)C1=CN(C)C=C(C(=O)OC)C1c1ccsc1	46.6
Cc1cc(=O)oc2cc(OCc3ccc(C(=O)OCC(=O)Nc4ccc(N(C)C)cc4)cc3)ccc12	0.7498
COc1ccccc1C(=O)Oc1cc(N)n(S(=O)(=O)c2ccc(C)cc2)n1	1.079
CCN1CCN(Cc2ccc(NC(=O)c3ccc(C)c(NC(=O)c4ccno4)c3)cc2C(F)(F)F)CC1	-2.039
O=C(O)CCCN1C(=O)/C(=C/C=C/c2ccco2)SC1=S	-0.1755
COc1c(O)cc2oc(-c3ccc(O)cc3)cc(=O)c2c1O	0.1277
Nc1ccc(-c2nc3ccc(N)cc3s2)cc1	31.71
O=C(O)c1ccccc1/C=N/NC(=O)c1cc(-c2ccco2)nc2ccccc12	-1.945
CCN(CC)c1ccc(NC(=O)Cn2c(C(C)NC(=O)c3ccc(C)cc3)nc3ccccc32)cc1 (centres undefined)	0.9362
COc1ccc(C2=CC3=C(Br)C(=O)C(C)(OC(=O)c4ccc(Cl)nc4)C(=O)C3=CO2)cc1 (centres undefined)	-1.966
CCOc1ccc(C(=O)Nc2ccc(-c3nc4ccccc4[nH]3)cc2)cc1[N+](=O)[O-]	-0.5049
O=C(N=Nc1ccc(NOC(=O)c2ccccc2Br)cc1)c1ccccc1O	-2.237
Cc1ccc(N/N=C/c2c(C)c(C#N)c(=O)n(C)c2O)cc1C	-0.2003
Cc1cccc(N2C(=O)NC(=O)/C(=C/c3ccc(-c4ccc(C(=O)O)c(Cl)c4)o3)C2=O)c1	0.287
Oc1cc2c(cc1C(c1ccc(Cl)c(Cl)c1)N1CCCC1)OCO2 (centres undefined)	-1.427
Cc1c(C)c2cc(Cl)c(O)c(CN3CCCCC3)c2oc1=O	46.05
O=c1cc(CCl)nc2sc3ccccc3n12	-0.7592
C=CCNC(=O)c1c(N)n(-c2cccc(S(N)(=O)=O)c2)c2nc3ccccc3nc12	44.11
COc1ccc(/C=N/Nc2cn[nH]c(=O)c2Cl)cc1	-1.447
C/C(=C/CCC(C)[C@H]1CC[C@@]2(C)C3=C(CC[C@]12C)[C@@]1(C)CCC(=O)C(C)(C)[C@@H]1CC3)C(=O)O (some centres undefined)	-2.017
Cc1ccc(C)c(NC(=O)Cn2nc(-c3ccccc3)nc2-c2ccccc2)c1	1.296
O=C(c1ccccc1)c1ccc2nc(Nc3ccccc3)c3nncn3c2c1	-1.958

The first 4 entries again:

{"compound": "CCOC(=O)c1cc2c(=O)n3cccc(C)c3nc2n(CC2CCCO2)c1=NC(C)=O", "stereo": "centres undefined", "z-score": "117.5"}
{"compound": "O=c1c2c(-c3ccc(Cl)cc3)csc2ncn1/N=C/c1cccc([N+](=O)[O-])c1O", "z-score": "-1.671"}
{"compound": "Cc1[nH]c2ccccc2c1/C=N/Nc1ccccn1", "z-score": "-0.664"}
{"compound": "Cc1ccc(Nc2nc(=O)c3cc([N+](=O)[O-])ccc3s2)cc1", "z-score": "-0.4716"}

Data taken from PubChem BioAssay AID463188, deposited by University of Pittsburgh Molecular Library Screening Center (2010).